Assay results from PMC12848717, “Discovery of Encrypted Peptides in a Human Matrix Metallopeptidase” (JACS Au, 2025).

Tested on: A. baumannii ATCC 19606
Conditions: serial exposure at MIC/2

In the case of `O=C(O)c1cn(C2CC2)c2cc(N3CCNCC3)c(F)cc2c1=O` [Ciprofloxacin], the “increase of MIC over 21 days of exposure” value is reported as 16 fold.
